In patent publication EP2359864B1, “Targeting Vector-Phospholipid Conjugates” (Bracco Suisse SA, priority 2005, dated 2019):
No constants are given. Whether binding was seen depends on the method and setting. Some results given as binding are weak or reduced against the parent protein; the word gives no strength.

The chains behind the UniProt entries cited, without tags or fusion partners. Where a name states a change or a piece, a line headed by the entry shows the natural chain unless it says otherwise. A line that says so, or that is headed by a name, gives the form on record, which may keep a tag or linker.
KDR receptor expressed on the endothelium of neovessels of rabbit VX2 tumors (G1SN50, form named): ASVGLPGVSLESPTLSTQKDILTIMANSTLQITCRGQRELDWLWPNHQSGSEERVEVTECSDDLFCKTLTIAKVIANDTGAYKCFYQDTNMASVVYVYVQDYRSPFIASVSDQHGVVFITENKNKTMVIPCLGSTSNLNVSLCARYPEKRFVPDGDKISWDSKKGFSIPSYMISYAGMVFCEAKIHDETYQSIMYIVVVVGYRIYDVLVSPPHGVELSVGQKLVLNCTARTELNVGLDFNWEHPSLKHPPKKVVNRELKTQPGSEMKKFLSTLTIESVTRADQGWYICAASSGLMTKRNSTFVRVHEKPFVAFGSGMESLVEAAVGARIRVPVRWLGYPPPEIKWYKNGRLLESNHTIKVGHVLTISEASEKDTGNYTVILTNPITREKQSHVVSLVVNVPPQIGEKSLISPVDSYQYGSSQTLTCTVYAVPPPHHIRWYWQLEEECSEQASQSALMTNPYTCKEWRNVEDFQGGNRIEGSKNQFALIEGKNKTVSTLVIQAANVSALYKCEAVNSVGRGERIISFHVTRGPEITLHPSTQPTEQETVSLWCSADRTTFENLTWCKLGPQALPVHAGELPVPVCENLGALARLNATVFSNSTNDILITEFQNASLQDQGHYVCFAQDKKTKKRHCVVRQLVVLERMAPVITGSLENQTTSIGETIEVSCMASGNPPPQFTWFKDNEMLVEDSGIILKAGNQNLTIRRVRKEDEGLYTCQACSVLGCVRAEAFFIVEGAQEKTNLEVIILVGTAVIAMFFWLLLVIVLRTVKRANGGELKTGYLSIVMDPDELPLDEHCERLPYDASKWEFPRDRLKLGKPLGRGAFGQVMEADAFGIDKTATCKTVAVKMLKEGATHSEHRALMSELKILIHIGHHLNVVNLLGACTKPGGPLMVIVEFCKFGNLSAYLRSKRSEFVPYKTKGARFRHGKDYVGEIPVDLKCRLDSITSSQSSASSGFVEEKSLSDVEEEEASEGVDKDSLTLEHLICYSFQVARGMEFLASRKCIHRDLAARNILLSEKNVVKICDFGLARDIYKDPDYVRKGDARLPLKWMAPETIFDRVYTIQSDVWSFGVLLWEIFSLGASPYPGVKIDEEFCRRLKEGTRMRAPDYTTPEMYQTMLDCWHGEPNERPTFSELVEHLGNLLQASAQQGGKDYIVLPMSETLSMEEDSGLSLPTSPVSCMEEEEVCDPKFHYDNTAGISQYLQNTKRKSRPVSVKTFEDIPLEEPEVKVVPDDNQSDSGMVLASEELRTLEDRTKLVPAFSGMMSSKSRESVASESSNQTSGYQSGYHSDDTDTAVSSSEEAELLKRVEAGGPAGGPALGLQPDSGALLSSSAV

Biological target: KDR receptor expressed on the endothelium of neovessels of rabbit VX2 tumors (rabbit) (UniProt G1SN50)
Assay: in vivo ultrasound imaging of rabbit VX2 tumors 25 min after injection of targeted microbubbles, free circulating bubbles subtracted

binding: binds
Binder: RAQDWYYDEILSMADQLRHAFLSGGGGGK (N-terminal acetyl; C-terminal Lys N6-(DSPE-PEG2000-NH-Glut); C-terminal amide) [monomeric peptide phospholipid conjugate (1)]
